Laboratory results reported in publication PMC8991925.
Results are given in words; binding and its absence hold for the method and conditions named. In cells and extracts the contact can be indirect. Some entries that bind do so weakly or less than the wild type. For part of these data: Tags and fused reporters may be left off the sequences shown.

The chains behind the UniProt entries cited, without tags or fusion partners.
UniProt P03372: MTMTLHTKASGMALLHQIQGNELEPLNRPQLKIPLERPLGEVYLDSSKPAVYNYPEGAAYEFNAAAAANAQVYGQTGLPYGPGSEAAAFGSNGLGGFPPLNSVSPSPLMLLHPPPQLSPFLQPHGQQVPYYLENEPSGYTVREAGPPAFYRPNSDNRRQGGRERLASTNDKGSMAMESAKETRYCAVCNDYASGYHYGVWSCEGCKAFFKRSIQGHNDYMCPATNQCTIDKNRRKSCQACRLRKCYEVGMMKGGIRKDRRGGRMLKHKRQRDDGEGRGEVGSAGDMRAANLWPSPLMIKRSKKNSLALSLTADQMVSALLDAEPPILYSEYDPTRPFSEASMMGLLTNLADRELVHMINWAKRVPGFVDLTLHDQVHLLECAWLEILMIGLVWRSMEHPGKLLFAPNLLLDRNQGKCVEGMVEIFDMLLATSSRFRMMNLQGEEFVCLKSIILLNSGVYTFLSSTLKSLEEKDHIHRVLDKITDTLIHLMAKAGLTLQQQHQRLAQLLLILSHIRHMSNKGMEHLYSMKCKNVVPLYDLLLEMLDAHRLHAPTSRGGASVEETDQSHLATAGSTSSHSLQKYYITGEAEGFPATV

Legend:
Myc-TRIM3 = molecular target: T1, Myc-TRIM3 (UniProt O75382); assay: co-IP; HEK293 cells transfected with Myc-TRIM3 and HA-ER alpha full length or mutants; co-IP with anti-Myc antibody, detection with anti-HA antibody
T1 sequence: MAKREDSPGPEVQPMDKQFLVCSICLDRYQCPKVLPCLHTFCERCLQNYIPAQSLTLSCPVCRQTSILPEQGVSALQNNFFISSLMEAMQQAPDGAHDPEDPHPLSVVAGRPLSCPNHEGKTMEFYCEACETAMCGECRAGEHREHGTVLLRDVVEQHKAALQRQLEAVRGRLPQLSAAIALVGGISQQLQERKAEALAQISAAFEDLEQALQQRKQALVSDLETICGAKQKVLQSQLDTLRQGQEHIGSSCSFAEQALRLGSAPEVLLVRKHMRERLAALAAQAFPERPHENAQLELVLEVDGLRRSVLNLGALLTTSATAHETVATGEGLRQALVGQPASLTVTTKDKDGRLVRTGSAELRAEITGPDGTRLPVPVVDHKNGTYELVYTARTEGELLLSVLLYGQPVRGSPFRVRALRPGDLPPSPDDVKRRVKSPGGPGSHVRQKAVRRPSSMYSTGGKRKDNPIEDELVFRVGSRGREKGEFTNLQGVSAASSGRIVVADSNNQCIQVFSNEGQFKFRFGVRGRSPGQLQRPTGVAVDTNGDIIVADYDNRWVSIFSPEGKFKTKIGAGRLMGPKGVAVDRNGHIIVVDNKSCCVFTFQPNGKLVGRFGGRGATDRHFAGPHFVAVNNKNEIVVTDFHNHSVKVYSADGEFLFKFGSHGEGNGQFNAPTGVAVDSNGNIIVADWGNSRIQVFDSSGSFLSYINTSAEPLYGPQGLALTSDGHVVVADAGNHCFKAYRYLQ

[1] = molecular target: Estrogen receptor (ER) alpha (human (endogenous in MCF-7)) (UniProt P03372); assay: co-IP; endogenous proteins; MCF-7 total cell lysate precleared with rabbit IgG, immunoprecipitated with anti-ER alpha antibody overnight, rabbit IgG as negative control; blot with anti-TRIM3
HA-ER alpha full length = HA-ER alpha full length (UniProt P03372); assay: co-IP; HEK293 cells transfected with HA-ER alpha and GFP-TRIM3 full length or mutants; co-IP with anti-HA antibody, detection with GFP antibody

## HA-ER alpha full length (from UniProt P03372 1-595)
Myc-TRIM3
  binding: binds

B1: TRIM3 (tripartite motif containing 3) (protein, UniProt O75382 1-744)
chain: T1 sequence
[1]
  binding: binds

B2: GFP-TRIM3 full length (protein, UniProt O75382 1-744)
chain: T1 sequence
HA-ER alpha full length
  binding: binds
